Assay results reported in patent US20020110808A1, “Toxicant-induced differential gene expression” (priority 2000, published 2002).
Some results were stated once for a whole list of compounds, not compound by compound.

Assays:
[1] = test system: HepG2 cells; assay: BrdU incorporation cell proliferation assay; type: cell-based, human; settings: 24 hr, 20 mM acetaminophen, 16 mM caffeine or 100 mM thioacetamide
Protocol: HepG2 cells (see e.g., Aden et al., Nature 282:615-616 (1979)) (ATCC HB-8065) were maintained in DMEM/F-12 medium with 10% fetal bovine serum and 1% antibiotic/antimycotic. For routine culturing and mRNA preps, cells were grown in 75 cm^2 flasks and split every 4-5 days. For plate assays, cells were plated in 96-well microtiter plates at 1×10^5 cells per well in 100 μl of growth medium.
Depending on the desired exposure time, cell treatments began 3 or 4 days after splitting or plating. At this time, the cells were near or at confluency. […] Cell treatments were at 37° C.
Uptake of 5-bromo-2′-deoxyuridine (BrdU) was measured using the Cell Proliferation ELISA kit from Boehringer-Mannheim (Indianapolis, Ind.).
Cell proliferation assays based on measurement of BrdU incorporation were performed according to the manufacturer's instructions (Boehringer Mannheim “Cell Proliferation ELISA Kit”).

[2] = test system: HepG2 cells; assay: cDNA array (GF200) expression profiling; type: cell-based, human; settings: up-regulation
Protocol: Cells were grown in DMEM/F12 medium with 10% fetal bovine serum in tissue culture flasks for 3 days following splitting, at which time they were at or near confluency. […] For each treated sample, an untreated control flask was set up with the same medium. Following the treatment period, mRNA was isolated by affinity purification on oligo(dT) cellulose resin using the Poly(A) Pure mRNA isolation kit from Ambion. RNA quality was assessed by agarose gel electrophoresis, and yields were determined by absorbance at 260 nm.
Radiolabeled cDNA for array hybridizations were prepared as follows. To a solution of 2 μg of RNA in 8 μl DEPC-treated water was added 2 μl of 1 μg/μl oligo(dT) (10-20 mer mixture, Research Genetics). After incubation for 10 min at 70° C., the solution was chilled on ice for 2 min, and then added to 6 μl of 5× first strand buffer (250 mM Tris-HCl (pH 8.3), 375 mM KCl, 15 mM MgCl2; Gibco-BRL), 1 μl of 0.1M DTT, 1.5 μl dNTP mix (20 mM each dATP, dGTP and dTTP), 10 μl of 10 mCi/ml [α-^33P]dCTP (1000 Ci/mmol, Amersham), and 1.5 μl of 200 U/μl reverse transcriptase (Superscript II, Gibco-BRL). Following a 90 min incubation at 37° C., cDNA targets were purified by passage through G-50 Sephadex spin columns (Pharmacia) or Bio-Spin 6 columns (BioRad). […]
Spot intensities were determined using Pathways software (Research Genetics). […]

## CC(=O)Nc1ccc(O)cc1 [acetaminophen]
[1]
  Inhibition of BrdU uptake (cell proliferation): 67-80%
[2]
  Changes in expression of the five metallothionein forms on arrays: 14- to 23 fold
